# In the supplement of paper PMC10849652:
# The chains behind the UniProt entries cited, without tags or fusion partners. Where a name states a change or a piece, a line headed by the entry shows the natural chain unless it says otherwise.
# UniProt Q8N5M9: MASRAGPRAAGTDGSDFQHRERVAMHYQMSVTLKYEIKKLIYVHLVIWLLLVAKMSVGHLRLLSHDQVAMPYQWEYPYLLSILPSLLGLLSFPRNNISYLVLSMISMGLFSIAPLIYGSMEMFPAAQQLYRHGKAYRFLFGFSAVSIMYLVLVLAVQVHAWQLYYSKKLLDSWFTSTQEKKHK
# UniProt Q9P0J7: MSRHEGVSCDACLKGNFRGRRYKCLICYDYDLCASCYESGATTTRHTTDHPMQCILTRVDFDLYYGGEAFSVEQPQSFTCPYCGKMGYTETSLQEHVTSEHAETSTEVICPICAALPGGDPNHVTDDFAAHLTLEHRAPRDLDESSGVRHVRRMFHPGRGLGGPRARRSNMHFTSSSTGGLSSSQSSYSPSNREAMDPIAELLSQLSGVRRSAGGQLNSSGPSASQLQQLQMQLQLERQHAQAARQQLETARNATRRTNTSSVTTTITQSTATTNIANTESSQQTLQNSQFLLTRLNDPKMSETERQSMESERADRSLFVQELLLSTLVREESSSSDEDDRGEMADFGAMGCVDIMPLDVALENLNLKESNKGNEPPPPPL
# UniProt P01591, whole entry, looked up: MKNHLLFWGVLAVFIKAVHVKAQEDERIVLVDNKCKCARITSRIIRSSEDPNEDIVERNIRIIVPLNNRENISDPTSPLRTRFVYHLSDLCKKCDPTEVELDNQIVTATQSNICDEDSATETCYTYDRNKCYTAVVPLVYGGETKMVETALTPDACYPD
# UniProt Q9P206: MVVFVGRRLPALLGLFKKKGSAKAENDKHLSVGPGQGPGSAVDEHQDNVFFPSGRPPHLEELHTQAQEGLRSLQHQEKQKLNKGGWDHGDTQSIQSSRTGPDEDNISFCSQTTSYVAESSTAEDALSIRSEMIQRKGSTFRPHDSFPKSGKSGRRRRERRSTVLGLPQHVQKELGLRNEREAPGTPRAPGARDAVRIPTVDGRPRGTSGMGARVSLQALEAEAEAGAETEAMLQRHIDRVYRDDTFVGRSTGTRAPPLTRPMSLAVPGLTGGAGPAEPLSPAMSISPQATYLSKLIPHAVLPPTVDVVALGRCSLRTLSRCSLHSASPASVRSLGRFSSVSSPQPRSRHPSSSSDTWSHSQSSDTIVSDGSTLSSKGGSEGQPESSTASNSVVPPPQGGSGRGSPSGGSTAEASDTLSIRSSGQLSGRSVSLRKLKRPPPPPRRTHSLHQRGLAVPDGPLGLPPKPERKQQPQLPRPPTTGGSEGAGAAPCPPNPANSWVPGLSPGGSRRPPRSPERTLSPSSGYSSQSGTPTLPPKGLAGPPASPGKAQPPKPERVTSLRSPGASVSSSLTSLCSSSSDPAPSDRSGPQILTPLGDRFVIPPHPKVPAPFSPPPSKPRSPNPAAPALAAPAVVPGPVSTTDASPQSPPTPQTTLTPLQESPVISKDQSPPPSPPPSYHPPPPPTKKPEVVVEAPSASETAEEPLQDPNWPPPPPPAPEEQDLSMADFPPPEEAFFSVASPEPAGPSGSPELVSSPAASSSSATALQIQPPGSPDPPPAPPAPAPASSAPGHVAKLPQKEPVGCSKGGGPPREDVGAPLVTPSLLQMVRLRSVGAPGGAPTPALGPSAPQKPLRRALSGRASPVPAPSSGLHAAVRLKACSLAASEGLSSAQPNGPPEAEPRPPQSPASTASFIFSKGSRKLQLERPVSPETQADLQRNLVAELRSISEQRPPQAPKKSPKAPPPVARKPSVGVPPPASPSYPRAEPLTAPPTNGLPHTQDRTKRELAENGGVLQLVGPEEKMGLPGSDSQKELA
# UniProt Q9NXV2: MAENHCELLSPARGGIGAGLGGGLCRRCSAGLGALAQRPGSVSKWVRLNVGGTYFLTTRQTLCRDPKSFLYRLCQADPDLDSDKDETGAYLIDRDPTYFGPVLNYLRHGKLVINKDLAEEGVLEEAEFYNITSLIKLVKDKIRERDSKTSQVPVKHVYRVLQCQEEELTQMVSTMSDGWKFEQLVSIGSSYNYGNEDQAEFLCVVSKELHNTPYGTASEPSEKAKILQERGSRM
# UniProt P17535: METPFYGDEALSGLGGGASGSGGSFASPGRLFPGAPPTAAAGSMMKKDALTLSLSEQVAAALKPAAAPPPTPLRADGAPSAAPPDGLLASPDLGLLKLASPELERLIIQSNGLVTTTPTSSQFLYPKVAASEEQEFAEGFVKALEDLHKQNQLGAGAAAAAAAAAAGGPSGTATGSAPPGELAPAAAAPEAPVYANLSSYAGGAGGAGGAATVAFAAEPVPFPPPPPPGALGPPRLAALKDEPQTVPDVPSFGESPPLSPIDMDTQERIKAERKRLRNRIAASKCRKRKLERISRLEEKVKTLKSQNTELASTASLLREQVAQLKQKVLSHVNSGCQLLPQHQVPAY
# UniProt Q8IY47: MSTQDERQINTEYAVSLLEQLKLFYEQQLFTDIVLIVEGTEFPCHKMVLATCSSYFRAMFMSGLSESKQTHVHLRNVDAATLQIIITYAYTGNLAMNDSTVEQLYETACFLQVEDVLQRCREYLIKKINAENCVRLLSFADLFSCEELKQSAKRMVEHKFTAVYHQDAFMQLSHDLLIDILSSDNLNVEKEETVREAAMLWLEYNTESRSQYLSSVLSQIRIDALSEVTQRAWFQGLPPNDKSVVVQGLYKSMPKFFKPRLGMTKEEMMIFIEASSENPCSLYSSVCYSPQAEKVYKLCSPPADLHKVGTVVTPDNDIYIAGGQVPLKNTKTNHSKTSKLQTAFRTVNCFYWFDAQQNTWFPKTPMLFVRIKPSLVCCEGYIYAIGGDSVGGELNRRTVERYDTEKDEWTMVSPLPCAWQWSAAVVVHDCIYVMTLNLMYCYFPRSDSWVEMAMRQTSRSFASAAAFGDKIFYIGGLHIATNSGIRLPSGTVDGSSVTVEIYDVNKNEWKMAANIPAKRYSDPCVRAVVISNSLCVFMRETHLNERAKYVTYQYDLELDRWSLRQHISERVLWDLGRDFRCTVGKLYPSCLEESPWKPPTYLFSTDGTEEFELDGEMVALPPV
# UniProt O00139: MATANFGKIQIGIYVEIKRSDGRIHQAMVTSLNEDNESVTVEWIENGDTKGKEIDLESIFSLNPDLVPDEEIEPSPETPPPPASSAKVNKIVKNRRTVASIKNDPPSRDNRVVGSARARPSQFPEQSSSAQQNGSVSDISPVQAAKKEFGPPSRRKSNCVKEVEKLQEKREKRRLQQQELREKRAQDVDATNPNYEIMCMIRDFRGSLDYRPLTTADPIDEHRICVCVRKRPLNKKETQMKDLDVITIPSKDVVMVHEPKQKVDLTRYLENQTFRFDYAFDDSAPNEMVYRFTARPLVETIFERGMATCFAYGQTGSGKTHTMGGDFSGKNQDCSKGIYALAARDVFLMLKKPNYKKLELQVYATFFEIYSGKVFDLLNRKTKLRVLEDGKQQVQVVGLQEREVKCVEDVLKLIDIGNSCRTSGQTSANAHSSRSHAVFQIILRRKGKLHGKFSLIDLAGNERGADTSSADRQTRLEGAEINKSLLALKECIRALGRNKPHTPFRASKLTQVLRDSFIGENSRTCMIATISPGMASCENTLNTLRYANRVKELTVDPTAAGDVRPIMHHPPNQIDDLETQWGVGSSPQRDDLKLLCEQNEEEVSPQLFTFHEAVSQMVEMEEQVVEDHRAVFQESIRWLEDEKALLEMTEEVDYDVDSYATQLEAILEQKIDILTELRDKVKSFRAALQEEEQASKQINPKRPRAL
# UniProt Q9BVA0, whole entry, looked up: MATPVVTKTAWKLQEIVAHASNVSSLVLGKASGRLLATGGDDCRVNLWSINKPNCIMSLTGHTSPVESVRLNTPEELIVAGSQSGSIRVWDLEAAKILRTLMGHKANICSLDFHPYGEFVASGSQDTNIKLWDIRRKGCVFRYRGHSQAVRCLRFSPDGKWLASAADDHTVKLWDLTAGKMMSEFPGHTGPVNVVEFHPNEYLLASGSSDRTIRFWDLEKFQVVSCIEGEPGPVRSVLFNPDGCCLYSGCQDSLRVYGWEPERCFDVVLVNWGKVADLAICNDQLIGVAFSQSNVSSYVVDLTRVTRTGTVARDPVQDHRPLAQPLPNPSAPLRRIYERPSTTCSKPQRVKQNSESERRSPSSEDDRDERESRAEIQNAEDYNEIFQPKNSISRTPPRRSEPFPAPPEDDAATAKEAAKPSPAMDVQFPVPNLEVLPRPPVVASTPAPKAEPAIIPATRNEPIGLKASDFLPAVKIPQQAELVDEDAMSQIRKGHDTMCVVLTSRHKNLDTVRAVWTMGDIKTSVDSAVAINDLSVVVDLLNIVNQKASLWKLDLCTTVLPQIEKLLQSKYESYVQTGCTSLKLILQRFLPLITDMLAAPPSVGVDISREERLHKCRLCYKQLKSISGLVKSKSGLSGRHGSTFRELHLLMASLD
# UniProt O00505, whole entry, looked up: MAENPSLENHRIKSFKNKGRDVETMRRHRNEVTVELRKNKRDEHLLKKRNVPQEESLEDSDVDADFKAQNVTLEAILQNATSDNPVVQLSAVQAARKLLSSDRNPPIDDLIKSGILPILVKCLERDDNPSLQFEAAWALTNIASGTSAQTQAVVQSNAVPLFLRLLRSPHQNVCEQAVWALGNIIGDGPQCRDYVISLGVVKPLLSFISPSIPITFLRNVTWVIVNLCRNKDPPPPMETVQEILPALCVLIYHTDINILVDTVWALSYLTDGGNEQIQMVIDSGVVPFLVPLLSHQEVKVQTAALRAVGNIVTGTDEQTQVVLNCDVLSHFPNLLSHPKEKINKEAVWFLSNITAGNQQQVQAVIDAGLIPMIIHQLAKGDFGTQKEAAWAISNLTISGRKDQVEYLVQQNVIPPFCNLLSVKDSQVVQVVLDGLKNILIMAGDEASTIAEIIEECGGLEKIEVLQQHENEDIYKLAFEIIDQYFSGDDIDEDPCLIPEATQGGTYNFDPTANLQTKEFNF
# UniProt Q1ED39: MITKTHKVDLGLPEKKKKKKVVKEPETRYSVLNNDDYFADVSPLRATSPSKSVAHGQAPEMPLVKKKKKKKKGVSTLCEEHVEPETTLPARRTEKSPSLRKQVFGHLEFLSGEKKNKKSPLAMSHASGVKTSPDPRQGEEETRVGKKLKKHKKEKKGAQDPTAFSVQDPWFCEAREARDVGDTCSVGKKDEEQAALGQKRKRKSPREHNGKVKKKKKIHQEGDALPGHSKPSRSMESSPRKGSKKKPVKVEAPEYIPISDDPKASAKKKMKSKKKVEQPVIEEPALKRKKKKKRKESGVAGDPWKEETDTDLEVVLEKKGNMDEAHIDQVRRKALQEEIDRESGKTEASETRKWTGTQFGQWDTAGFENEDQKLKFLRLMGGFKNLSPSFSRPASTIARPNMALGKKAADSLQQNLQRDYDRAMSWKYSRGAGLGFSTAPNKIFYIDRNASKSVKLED
# UniProt O75449: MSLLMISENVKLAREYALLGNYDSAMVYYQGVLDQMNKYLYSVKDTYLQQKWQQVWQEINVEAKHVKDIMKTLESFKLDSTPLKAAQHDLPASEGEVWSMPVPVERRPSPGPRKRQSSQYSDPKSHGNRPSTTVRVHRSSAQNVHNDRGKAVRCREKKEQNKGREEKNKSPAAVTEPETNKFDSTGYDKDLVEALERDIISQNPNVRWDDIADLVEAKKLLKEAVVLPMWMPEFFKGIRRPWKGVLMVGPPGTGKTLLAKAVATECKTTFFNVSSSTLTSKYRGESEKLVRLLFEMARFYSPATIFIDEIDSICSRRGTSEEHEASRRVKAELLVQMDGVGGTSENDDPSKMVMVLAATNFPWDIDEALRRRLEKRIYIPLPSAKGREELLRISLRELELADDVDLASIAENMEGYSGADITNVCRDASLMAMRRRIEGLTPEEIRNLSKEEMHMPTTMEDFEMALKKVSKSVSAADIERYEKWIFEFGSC
# UniProt Q674X7: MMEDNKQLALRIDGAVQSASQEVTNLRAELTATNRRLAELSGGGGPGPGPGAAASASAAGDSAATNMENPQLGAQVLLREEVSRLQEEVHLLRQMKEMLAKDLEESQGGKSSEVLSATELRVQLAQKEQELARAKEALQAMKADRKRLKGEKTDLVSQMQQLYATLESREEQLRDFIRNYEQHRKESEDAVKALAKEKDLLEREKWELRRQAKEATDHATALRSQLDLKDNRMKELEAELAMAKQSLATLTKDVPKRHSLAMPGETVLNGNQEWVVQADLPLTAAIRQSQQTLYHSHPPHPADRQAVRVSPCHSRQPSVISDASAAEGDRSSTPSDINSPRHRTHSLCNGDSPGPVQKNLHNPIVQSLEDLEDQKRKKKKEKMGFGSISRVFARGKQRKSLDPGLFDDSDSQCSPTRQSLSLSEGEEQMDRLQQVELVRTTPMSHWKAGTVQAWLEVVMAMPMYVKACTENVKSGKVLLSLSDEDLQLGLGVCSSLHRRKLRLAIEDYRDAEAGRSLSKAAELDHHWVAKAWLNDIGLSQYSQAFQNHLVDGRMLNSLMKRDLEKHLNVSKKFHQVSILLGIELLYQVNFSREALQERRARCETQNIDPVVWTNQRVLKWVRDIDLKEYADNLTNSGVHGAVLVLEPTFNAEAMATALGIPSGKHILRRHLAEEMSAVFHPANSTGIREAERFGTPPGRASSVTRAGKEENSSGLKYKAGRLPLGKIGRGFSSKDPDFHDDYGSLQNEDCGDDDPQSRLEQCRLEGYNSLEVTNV
# This is one part of the list.
# Compound: c1cn2cc(-c3ccc4cn[nH]c4c3)nc(Nc3ccc(N4CCOCC4)cc3)c2n1 [entospletinib]
# Experiment: log2 fold change, soluble protein after heating vs DMSO (PISA); higher = thermal stabilisation; K562 cells, 10 uM, 30 min; active = over 0.2 and 3.5 SD of the protein, either way, in both replicates (recomputed)
# In short: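 Values are thermal stability changes relative to control samples and are taken from duplicates. They are stated as log2 fold changes. Before quantification by TMTpro 16plex LC-MS/MS with equalised channel sums, K562 cells at 2×10^6 cells/mL were treated with 10 μM compound for 30 min, heated in aliquots for 3 min across 48°C-58°C, pooled, extracted in PBS with 0.5% NP-40 at 4°C, and centrifuged at 21,000xg for 90 min to give the soluble supernatant.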
row,Target,log2 fold change
1,KPNA2 (UniProt P52292),inactive: 0.141
2,KIAA1109 (UniProt Q2LD37),inactive: -0.095
3,KCTD3 (UniProt Q9Y597),inactive: 0.03
4,KLK10 (UniProt O43240),inactive: -0.117
5,JAGN1 (UniProt Q8N5M9),inactive: 0.028
6,KCMF1 (UniProt Q9P0J7),inactive: 0.057
7,KAT7 (UniProt O95251),inactive: -0.013
8,JUNB (UniProt P17275),inactive: 0.112
9,KLF16 (UniProt Q9BXK1),inactive: 0.001
10,JMJD7 (UniProt P0C870),inactive: 0.117
11,KIAA0930 isoform 2 (UniProt Q6ICG6),inactive: -0.212
12,JCHAIN (UniProt P01591),inactive: -0.314
13,KIAA1522 isoform 2 (UniProt Q9P206),inactive: 0.179
14,KCTD5 (UniProt Q9NXV2),inactive: 0.129
15,JUND (UniProt P17535),inactive: -0.016
16,KBTBD2 (UniProt Q8IY47),inactive: -0.067
17,KCTD9 (UniProt Q7L273),inactive: 0.033
18,KIF2A isoform 4 (UniProt O00139),inactive: 0.034
19,KIF5B (UniProt P33176),inactive: -0.018
20,KCNAB2 (UniProt Q13303),inactive: -0.015
21,KATNB1 (UniProt Q9BVA0),inactive: -0.117
22,KPNA3 (UniProt O00505),inactive: -0.052
23,KNL1 (UniProt Q8NG31),inactive: -0.269
24,KNOP1 (UniProt Q1ED39),inactive: -0.078
25,KATNA1 (UniProt O75449),inactive: 0.066
26,KAZN isoform 3 (UniProt Q674X7),inactive: -0.133
27,KIFAP3 (UniProt Q92845),inactive: -0.161

# Given with tabs: part of the list above
row	Target	log2 fold change
25	KATNA1 (UniProt O75449)	inactive: 0.066
26	KAZN isoform 3 (UniProt Q674X7)	inactive: -0.133
